In test [1] the target is T1, Gpsm2 (G-protein signaling modulator 2, LGN), endogenous in mouse retina (mouse (endogenous in retina)) (UniProt Q8VDU0).
T1 sequence: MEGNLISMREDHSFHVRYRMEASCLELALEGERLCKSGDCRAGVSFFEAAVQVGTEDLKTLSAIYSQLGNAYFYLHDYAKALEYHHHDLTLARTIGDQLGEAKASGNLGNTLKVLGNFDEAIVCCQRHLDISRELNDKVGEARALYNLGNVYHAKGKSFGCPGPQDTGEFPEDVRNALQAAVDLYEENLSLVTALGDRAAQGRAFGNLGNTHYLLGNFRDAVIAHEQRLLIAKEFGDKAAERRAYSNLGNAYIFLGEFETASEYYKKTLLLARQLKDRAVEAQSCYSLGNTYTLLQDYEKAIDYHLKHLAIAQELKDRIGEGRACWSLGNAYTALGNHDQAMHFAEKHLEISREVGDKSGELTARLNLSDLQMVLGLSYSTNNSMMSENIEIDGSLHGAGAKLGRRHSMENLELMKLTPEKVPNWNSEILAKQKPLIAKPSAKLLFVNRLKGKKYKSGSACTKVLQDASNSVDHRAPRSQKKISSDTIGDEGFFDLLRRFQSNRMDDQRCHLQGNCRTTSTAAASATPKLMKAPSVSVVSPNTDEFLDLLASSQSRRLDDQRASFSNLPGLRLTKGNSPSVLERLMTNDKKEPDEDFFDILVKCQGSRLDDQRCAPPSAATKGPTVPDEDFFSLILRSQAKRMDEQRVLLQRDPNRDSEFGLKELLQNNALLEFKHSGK
Put plainly: co-IP; mouse retina lysate, endogenous proteins; mice light-adapted 1 h, then dark-adapted 1 h; IP with anti-Gpsm2 or anti-Frmpd1, Dynabeads protein A or G, immunoblot; IP buffer 150 mM NaCl, 3 mM EDTA, 40 mM Tris, 10% glycerol, 1% n-dodecyl-β-D-maltoside. (Immunoblotting shows a protein as a band on a membrane.)

Sequences of proteins named here, by UniProt entry; tags and fusion partners are left off.
UniProt A2AKB4: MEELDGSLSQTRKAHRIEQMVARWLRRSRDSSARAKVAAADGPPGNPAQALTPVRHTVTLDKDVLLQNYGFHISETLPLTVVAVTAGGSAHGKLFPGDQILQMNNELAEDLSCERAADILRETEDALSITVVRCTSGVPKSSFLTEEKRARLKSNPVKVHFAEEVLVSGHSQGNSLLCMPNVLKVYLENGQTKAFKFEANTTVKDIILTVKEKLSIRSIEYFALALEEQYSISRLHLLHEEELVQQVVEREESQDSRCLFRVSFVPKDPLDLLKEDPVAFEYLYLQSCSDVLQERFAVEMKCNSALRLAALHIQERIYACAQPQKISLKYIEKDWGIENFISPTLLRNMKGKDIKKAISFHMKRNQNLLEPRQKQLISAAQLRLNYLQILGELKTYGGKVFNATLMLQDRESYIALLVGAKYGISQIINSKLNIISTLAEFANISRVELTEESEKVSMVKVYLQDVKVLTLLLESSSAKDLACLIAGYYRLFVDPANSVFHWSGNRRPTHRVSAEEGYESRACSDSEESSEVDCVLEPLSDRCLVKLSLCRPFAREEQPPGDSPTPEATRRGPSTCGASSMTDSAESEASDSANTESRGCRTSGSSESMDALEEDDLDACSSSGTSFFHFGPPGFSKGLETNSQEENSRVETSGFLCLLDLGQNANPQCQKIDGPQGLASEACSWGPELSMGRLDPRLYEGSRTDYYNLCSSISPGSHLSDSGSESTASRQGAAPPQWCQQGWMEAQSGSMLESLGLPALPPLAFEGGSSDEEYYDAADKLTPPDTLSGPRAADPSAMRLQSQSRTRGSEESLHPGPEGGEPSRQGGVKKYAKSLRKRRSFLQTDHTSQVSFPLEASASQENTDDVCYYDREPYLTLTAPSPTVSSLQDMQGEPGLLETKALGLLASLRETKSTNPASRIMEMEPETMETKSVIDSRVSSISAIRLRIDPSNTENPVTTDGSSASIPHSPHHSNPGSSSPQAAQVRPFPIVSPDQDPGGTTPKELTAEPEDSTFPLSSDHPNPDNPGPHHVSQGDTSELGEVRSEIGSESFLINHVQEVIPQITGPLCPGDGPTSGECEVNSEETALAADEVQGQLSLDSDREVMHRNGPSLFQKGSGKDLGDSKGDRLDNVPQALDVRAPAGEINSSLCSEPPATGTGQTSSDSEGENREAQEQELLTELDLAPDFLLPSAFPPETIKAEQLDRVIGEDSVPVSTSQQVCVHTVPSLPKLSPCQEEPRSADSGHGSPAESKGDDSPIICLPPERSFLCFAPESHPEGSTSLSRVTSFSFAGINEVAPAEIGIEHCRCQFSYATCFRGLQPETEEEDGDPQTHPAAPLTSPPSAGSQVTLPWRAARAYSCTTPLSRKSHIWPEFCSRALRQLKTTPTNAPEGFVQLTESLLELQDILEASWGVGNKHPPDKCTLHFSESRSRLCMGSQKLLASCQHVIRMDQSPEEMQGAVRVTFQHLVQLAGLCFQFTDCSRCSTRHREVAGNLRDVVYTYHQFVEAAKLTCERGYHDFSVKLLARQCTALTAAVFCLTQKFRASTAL

Test [2] concerns the target Frmpd1 (FERM and PDZ domain containing 1), endogenous in mouse retina (mouse (endogenous in retina)) (UniProt A2AKB4). Described as above.
The target of test [3] is FLAG-tagged full-length Frmpd1 (FERM and PDZ domain containing 1) (mouse) (UniProt A2AKB4). Put plainly: co-IP; HEK293 cells co-transfected with 3′ FLAG-Frmpd1 and mCherry-Gpsm2; IP with anti-FLAG, blot anti-RFP, and IP with anti-RFP, blot anti-FLAG; IP buffer 150 mM NaCl, 3 mM EDTA, 40 mM Tris, 10% glycerol, 1% n-dodecyl-β-D-maltoside.

The results in this text go back to paper PMC9581579 (2022).

These are yes or no findings as the source states them, for the method shown. In cells and extracts the contact can be indirect. Some binding calls cover weakened binding; strength is not graded here. For part of these data: Sequences can lack the tags named with a protein.

Regarding “Frmpd1 (FERM and PDZ domain containing 1), endogenous in mouse retina (from UniProt A2AKB4 1-1549)”, in test [1], the binding entry is “binds”.

B1: Gpsm2 (G-protein signaling modulator 2, LGN), endogenous in mouse retina (protein, UniProt Q8VDU0 1-679)
chain: T1 sequence
B1: in test [2], the binding result is on record as “binds”.

B2: mCherry-Gpsm2 fusion protein (G-protein signaling modulator 2, LGN) (protein, UniProt P81274 1-684)
chain: MEENLISMREDHSFHVRYRMEASCLELALEGERLCKSGDCRAGVSFFEAAVQVGTEDLKTLSAIYSQLGNAYFYLHDYAKALEYHHHDLTLARTIGDQLGEAKASGNLGNTLKVLGNFDEAIVCCQRHLDISRELNDKVGEARALYNLGNVYHAKGKSFGCPGPQDVGEFPEEVRDALQAAVDFYEENLSLVTALGDRAAQGRAFGNLGNTHYLLGNFRDAVIAHEQRLLIAKEFGDKAAERRAYSNLGNAYIFLGEFETASEYYKKTLLLARQLKDRAVEAQSCYSLGNTYTLLQDYEKAIDYHLKHLAIAQELNDRIGEGRACWSLGNAYTALGNHDQAMHFAEKHLEISREVGDKSGELTARLNLSDLQMVLGLSYSTNNSIMSENTEIDSSLNGVRPKLGRRHSMENMELMKLTPEKVQNWNSEILAKQKPLIAKPSAKLLFVNRLKGKKYKTNSSTKVLQDASNSIDHRIPNSQRKISADTIGDEGFFDLLSRFQSNRMDDQRCCLQEKNCHTASTTTSSTPPKMMLKTSSVPVVSPNTDEFLDLLASSQSRRLDDQRASFSNLPGLRLTQNSQSVLSHLMTNDNKEADEDFFDILVKCQGSRLDDQRCAPPPATTKGPTVPDEDFFSLILRSQGKRMDEQRVLLQRDQNRDTDFGLKDFLQNNALLEFKNSGKKSADH
As for B2, the binding result in test [3] was “binds”.
